PubChem BioAssay AID504764, Drosophila RNAi Screening Center – 2011

Test: 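Genes whose knock-down alters Notch-dependent transcription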 (primary screen)
Cells: Drosophila Kc167 cells
Knock-down reagent: long dsRNA against Drosophila genes
Timing: about 5 days (4 days dsRNA, then 24 h after transfection)
Treatment: transfection of constitutively active membrane-tethered Notch lacking the extracellular domain, read 24 h later
Read-out: 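Light from a Notch-responsive E(spl)m3 luciferase reporter under active Notch, with control-promoter and no-Notch reporter wells to normalise; raw counts from paired wells a and b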
Scale: induced reporter light, run 1, well a and induced reporter light, run 1, well b: higher = more light from the Notch target reporter with active Notch; control promoter light, run 1, well a and control promoter light, run 1, well b: higher = more light from the viral control promoter (cell number, transfection, viability); uninduced reporter light, run 1, well a: higher = more light from the Notch target reporter without active Notch
Active means: 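Hit if the duplicate-averaged log2 ratio of induced to control-promoter light gives a plate-wise z beyond ±2, or induced to uninduced beyond ±1.8; weak-control or discordant-duplicate wells dropped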
Calls: active = modifier hit (raised or lowered Notch signal); inactive = not a hit
The screen tested about 22,000 reagents; this is an unselected part of those with a known target gene and a result. Over the whole deposit, 403 (1.9%) are marked active. 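Unnormalised raw counts per well; ratio z-scores behind the hit calls and whether each hit raises or lowers signal are not deposited.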 Entries without a mark were called inactive. A plus sign joins genes that one reagent is predicted to hit. The record does not give: the amount of reagent.

CG6961 + CG18259 [DRSC19799] | induced reporter light, run 1, well a: 54335; induced reporter light, run 1, well b: 75300; control promoter light, run 1, well a: 54855; control promoter light, run 1, well b: 80990; uninduced reporter light, run 1, well a: 8520
CG6961 + CG18259 [DRSC20019] | induced reporter light, run 1, well a: 1.18e5; induced reporter light, run 1, well b: 1.07e5; control promoter light, run 1, well a: 87685; control promoter light, run 1, well b: 45805; uninduced reporter light, run 1, well a: 9185
CG7208 [DRSC16212] | induced reporter light, run 1, well a: 2.15e5; induced reporter light, run 1, well b: 1.88e5; control promoter light, run 1, well a: 2.25e5; control promoter light, run 1, well b: 2.33e5; uninduced reporter light, run 1, well a: 13245
Cht12 [DRSC03844] | induced reporter light, run 1, well a: 57570; induced reporter light, run 1, well b: 63825; control promoter light, run 1, well a: 79075; control promoter light, run 1, well b: 73660; uninduced reporter light, run 1, well a: 5815
CG42240 [DRSC18097] | induced reporter light, run 1, well a: 1.91e5; induced reporter light, run 1, well b: 1.49e5; control promoter light, run 1, well a: 1.92e5; control promoter light, run 1, well b: 1.83e5; uninduced reporter light, run 1, well a: 15005
Arc42 [DRSC14340] | induced reporter light, run 1, well a: 1.67e5; induced reporter light, run 1, well b: 1.57e5; control promoter light, run 1, well a: 1.41e5; control promoter light, run 1, well b: 1.38e5; uninduced reporter light, run 1, well a: 11745
Arc42 [DRSC15627] | induced reporter light, run 1, well a: 2.19e5; induced reporter light, run 1, well b: 1.63e5; control promoter light, run 1, well a: 1.84e5; control promoter light, run 1, well b: 1.61e5; uninduced reporter light, run 1, well a: 14505
CG13311 [DRSC09982] | induced reporter light, run 1, well a: 2.36e5; induced reporter light, run 1, well b: 1.74e5; control promoter light, run 1, well a: 3.09e5; control promoter light, run 1, well b: 2.76e5; uninduced reporter light, run 1, well a: 11115
CG44325 [DRSC18423] | induced reporter light, run 1, well a: 1.37e5; induced reporter light, run 1, well b: 1.41e5; control promoter light, run 1, well a: 2.17e5; control promoter light, run 1, well b: 2.29e5; uninduced reporter light, run 1, well a: 11585
tll [DRSC17085] | induced reporter light, run 1, well a: 1.49e5; induced reporter light, run 1, well b: 1.72e5; control promoter light, run 1, well a: 2.17e5; control promoter light, run 1, well b: 1.81e5; uninduced reporter light, run 1, well a: 12570
Fign [DRSC00592] | induced reporter light, run 1, well a: 2.09e5; induced reporter light, run 1, well b: 2.08e5; control promoter light, run 1, well a: 2.69e5; control promoter light, run 1, well b: 2.82e5; uninduced reporter light, run 1, well a: 19700
AP-1mu [DRSC14089] | induced reporter light, run 1, well a: 1.72e5; induced reporter light, run 1, well b: 1.34e5; control promoter light, run 1, well a: 1.18e5; control promoter light, run 1, well b: 1.28e5; uninduced reporter light, run 1, well a: 13370

Records above whose target name starts with A or a:
Arc42 [DRSC14340] | induced reporter light, run 1, well a: 1.67e5; induced reporter light, run 1, well b: 1.57e5; control promoter light, run 1, well a: 1.41e5; control promoter light, run 1, well b: 1.38e5; uninduced reporter light, run 1, well a: 11745
Arc42 [DRSC15627] | induced reporter light, run 1, well a: 2.19e5; induced reporter light, run 1, well b: 1.63e5; control promoter light, run 1, well a: 1.84e5; control promoter light, run 1, well b: 1.61e5; uninduced reporter light, run 1, well a: 14505
AP-1mu [DRSC14089] | induced reporter light, run 1, well a: 1.72e5; induced reporter light, run 1, well b: 1.34e5; control promoter light, run 1, well a: 1.18e5; control promoter light, run 1, well b: 1.28e5; uninduced reporter light, run 1, well a: 13370
